# Reference: US11780935B2 (Pfizer Healthcare Ireland, priority 2012, dated 2023)
# Experiment: general procedure: Fmoc solid-phase peptide synthesis; Fmoc-Rink-PL resin (0.67 mmol/g); HBTU/HOBt/NMM
# Conditions: late stage modification step
substance,measurement,setting,value
"2-Methylalanyl-N-[(3R,4S,5S)-3-methoxy-1-{(2S)-2-[(1R,2R)-1-methoxy-2-methyl-3-oxo-3-{[(1S)-2-phenyl-1-(1,3-thiazol-2-yl)ethyl]amino}propyl]pyrrolidin-1-yl}-5-methyl-1-oxoheptan-4-yl]-N-methyl-L-valinamide",step yield,,75%
same,final HPLC purity,HPLC Protocol A,>97%
